Values quoted from earlier work as cited in patent US20120165520A1, “PROCESS FOR THE SYNTHESIS OF PRODRUGS OF OPIOIDS” (priority 2010, published 2012).
At least one read-out could not be matched to a standard name with certainty.

Conditions: rat model

(Z)-3-[2-(propionyloxy)phenyl]-2-propenoic ester
bioavailability compared with meptazinol itself: significant increase in bioavailability over meptazinol itself
